The source of these data is patent US6358998B1, “Body fat-reducing agent comprising dioxabicyclo[3.3.0] octane derivative as active ingredient” (Rinoru Oil Mills Co., LTD, priority 1999, dated 2002).

The structures appear in SMILES notation.

A short description of this data set: Example 2: three-week feeding of experimental diet to rats, food intake and weight gain. The class given is in vivo, rat. Conditions: Sprague-Dawley male rats, diet fed freely for three weeks, 0.2% sesamin (+1.0% CLA).

Take `c1cc2c(cc1[C@H]1OC[C@H]3[C@@H]1CO[C@@H]3c1ccc3c(c1)OCO3)OCO2` [Sesamin, sesamin]: the Food intake is 25.3 g/day and the Weight gain is 8.22 g/day.
